Assay results: patent publication US10421761B2, “Compounds for kinase modulation, and indications therefor” (Plexxikon Inc., priority 2013, dated 2019)
Entries after “also recorded” stand apart in the source; their conditions may differ. At least one structure is not confirmed: it was looked up by name or label, or the drawing left a doubt.

Experiments:
[1] = tested on: EGFR-overexpressed SCC cell line A431; assay: Phospho-ERK immunoblot analysis in A431; type: cell-based, human; settings: A431 cells
B9 cells [2] = assay: Anchorage-independent growth assay of B9 cells in soft agar; type: cell-based, mouse; settings: 3 weeks; colonies ≥100 μm scored
Experimental: Anchorage-independent growth assay. 2.5×10^4 B9 cells were plated in each well of a six-well plate with a bottom layer of 1% and a top layer of 0.4% low melting agar (Sigma A4018, Dallas, Tex.) containing RPMI1640 medium with 10% FBS. For RAF inhibitor study, B9 cells grown in soft agar were treated with vemurafenib, compound P-1000 or compound A at indicated concentration or dimethyl sulfoxide (DMSO) for 3 weeks. For EGFR ligand study, B9 cells grown in soft agar were treated with AREG (R&D systems 989-AR, Minneapolis, Minn.), TGFα (R&D systems 239-A, Minneapolis, Minn.) or HB-EGF (R&D systems 259-HE, Minneapolis, Minn.) at the indicated concentrations for 3 weeks. For vemurafenib and erlotinib combination study, B9 cells grown in soft agar were treated with vemurafenib, erlotinib or a combination of the two compounds at the indicated concentrations or DMSO for 3 weeks. Anchorage-independent colonies ≥100 μm were scored using AxioVision Rel 4.8 software (CarlZeiss, Wake Forest, N.C.).
B9 cells grown in soft agar were treated with AREG, TGFα or HBEGF at the indicated concentrations for 3 weeks. Anchorage-independent colonies ≥100 μm were scored. B9 cells grown in soft agar were treated with vemurafenib or a combination of vemurafenib and erlotinib at the indicated concentrations for 3 weeks. Anchorage-independent colonies ≥100 μm were scored.

[3] = tested on: COLO205 human colorectal cancer xenografts; assay: COLO205 subcutaneous tumor xenograft study; type: in vivo, mouse; settings: 25 mg/kg twice daily
B9 cells [4] = assay: EGFR ligand assay (ELISA of AREG, TGFα, HB-EGF) in B9 cells; type: cell-based, mouse; settings: 48 hours
[5] = tested on: mutant BRAF V600 driven melanoma; settings: cited from earlier work
[6] = tested on: colorectal carcinoma cell line HCT116 (KRAS G13D); assay: HCT116 pERK assay (AlphaScreen); type: cell-based, human; settings: RAS mutant cell line HCT116 (KRAS G13D)
[7] = tested on: HER2-overexpressed breast carcinoma cell line SKBR3; assay: Phospho-ERK immunoblot analysis in SKBR3; type: cell-based, human; settings: SKBR3 cells
[8] = tested on: B9 subcutaneous xenografts; assay: B9 subcutaneous tumor xenograft study; type: in vivo, mouse; settings: 50 mg/kg oral

Compound: CCCS(=O)(=O)Nc1ccc(F)c(C(=O)c2c[nH]c3ncc(-c4ccc(Cl)cc4)cc23)c1F [vemurafenib]
- pERK levels (immunoblot) [1]: paradoxically activates MAPK signaling
- B9 colony formation / anchorage-independent growth in soft agar (B9 cells [2]): stimulated B9 colony formation; also recorded: increased anchorage independent cell growth
- antitumor effect on COLO205 xenografts [3]: inhibited the growth
- HB-EGF protein expression (ELISA) (B9 cells [4]; B9 cell lysates): upregulation
- AREG protein expression (ELISA) (B9 cells [4]; B9 cell supernatant): upregulation
- TGFα protein expression (ELISA) (B9 cells [4]; B9 cells): upregulation; also recorded: induced
- survival in patients [5]: overall survival benefit
- tumor response in patients [5]: objective tumor response
- pERK activation [6]: paradoxically activates MAPK signaling
- pERK levels (immunoblot) [7]: paradoxically activates MAPK signaling
- subcutaneous B9 tumor growth [8]: accelerated; also recorded: stimulated
